Reference: the supplement of paper PMC10849652
This is one part of the list.

Protein sequences, listed by entry. Tags and fused reporters are not part of them. Lines headed by an entry give the natural chain unless they say otherwise; changes in a name come on top.
UniProt Q99717: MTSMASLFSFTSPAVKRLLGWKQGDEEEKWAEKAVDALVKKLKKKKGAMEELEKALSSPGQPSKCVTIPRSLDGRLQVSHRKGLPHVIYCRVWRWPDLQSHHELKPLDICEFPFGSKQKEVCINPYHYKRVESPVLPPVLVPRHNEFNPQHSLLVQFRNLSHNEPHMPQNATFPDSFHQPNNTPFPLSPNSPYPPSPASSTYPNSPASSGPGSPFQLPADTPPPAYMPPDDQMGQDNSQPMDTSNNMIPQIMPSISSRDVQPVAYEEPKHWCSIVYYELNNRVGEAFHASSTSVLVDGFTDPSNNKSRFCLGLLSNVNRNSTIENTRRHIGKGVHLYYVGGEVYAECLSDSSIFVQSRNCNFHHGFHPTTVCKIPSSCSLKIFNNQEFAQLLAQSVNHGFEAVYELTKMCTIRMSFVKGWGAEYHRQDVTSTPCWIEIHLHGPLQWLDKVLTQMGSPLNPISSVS
UniProt Q8IZM9: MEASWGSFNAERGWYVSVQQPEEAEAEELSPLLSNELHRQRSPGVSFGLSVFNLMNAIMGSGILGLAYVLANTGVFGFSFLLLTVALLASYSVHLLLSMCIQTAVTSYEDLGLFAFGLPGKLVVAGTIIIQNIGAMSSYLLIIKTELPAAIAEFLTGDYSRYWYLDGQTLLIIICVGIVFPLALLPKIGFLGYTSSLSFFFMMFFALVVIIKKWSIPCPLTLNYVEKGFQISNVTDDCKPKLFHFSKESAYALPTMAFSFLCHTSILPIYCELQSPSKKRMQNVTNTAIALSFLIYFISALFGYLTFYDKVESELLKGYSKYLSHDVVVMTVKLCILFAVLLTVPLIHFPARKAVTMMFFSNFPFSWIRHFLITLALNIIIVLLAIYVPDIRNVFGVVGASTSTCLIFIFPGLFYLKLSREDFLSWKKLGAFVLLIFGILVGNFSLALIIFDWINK
UniProt Q96A46: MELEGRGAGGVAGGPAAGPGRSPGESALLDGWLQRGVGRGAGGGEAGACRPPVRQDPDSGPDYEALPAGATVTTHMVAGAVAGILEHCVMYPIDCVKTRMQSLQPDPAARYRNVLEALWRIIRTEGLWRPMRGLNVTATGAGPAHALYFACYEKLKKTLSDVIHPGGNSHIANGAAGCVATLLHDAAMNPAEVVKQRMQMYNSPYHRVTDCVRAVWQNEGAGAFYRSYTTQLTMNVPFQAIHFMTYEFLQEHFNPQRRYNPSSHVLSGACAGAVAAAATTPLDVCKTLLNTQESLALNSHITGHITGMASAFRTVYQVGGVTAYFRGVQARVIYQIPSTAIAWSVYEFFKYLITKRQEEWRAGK
UniProt Q96GZ6: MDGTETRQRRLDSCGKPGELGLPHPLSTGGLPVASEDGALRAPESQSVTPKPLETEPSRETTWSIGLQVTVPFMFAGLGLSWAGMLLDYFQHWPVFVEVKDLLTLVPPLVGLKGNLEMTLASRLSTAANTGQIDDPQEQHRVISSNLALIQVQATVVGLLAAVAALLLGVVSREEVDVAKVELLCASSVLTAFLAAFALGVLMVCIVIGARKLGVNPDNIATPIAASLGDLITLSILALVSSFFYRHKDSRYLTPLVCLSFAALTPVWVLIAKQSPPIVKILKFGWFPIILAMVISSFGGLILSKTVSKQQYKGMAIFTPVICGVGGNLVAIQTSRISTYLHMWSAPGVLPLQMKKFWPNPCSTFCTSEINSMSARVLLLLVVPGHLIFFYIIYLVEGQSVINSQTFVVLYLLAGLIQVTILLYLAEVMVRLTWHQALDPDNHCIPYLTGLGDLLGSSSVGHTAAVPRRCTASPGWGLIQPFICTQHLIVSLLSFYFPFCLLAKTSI
UniProt Q9NVC3: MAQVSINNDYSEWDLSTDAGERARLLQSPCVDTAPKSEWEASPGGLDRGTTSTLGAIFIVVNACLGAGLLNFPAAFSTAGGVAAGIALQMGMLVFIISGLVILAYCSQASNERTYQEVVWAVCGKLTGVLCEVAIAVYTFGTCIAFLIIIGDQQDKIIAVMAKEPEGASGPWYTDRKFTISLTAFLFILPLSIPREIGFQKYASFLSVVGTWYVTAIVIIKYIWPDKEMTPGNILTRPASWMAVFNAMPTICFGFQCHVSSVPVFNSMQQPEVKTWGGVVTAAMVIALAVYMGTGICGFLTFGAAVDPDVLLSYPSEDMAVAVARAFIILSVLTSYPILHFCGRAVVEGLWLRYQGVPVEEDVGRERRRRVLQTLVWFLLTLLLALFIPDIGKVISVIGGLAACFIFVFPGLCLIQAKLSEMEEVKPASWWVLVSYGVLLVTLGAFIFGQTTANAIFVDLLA
UniProt O94956: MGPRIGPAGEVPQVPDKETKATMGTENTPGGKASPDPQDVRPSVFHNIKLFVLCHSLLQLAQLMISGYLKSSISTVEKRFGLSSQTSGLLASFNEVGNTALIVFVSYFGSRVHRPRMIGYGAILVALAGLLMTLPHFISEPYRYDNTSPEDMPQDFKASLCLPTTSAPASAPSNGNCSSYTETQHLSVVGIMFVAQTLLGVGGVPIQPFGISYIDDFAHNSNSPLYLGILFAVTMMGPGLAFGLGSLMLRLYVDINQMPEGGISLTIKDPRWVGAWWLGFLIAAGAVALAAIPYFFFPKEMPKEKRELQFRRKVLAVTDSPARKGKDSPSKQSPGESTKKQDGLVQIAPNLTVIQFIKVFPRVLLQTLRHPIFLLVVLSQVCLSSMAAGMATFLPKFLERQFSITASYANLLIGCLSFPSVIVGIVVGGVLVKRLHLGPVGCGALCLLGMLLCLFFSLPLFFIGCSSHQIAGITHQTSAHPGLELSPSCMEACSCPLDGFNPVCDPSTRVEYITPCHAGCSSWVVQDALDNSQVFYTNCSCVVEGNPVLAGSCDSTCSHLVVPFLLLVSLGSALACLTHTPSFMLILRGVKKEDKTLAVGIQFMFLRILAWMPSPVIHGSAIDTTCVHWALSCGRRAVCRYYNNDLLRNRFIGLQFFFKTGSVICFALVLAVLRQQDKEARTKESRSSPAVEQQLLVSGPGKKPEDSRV
UniProt Q9Y2E8: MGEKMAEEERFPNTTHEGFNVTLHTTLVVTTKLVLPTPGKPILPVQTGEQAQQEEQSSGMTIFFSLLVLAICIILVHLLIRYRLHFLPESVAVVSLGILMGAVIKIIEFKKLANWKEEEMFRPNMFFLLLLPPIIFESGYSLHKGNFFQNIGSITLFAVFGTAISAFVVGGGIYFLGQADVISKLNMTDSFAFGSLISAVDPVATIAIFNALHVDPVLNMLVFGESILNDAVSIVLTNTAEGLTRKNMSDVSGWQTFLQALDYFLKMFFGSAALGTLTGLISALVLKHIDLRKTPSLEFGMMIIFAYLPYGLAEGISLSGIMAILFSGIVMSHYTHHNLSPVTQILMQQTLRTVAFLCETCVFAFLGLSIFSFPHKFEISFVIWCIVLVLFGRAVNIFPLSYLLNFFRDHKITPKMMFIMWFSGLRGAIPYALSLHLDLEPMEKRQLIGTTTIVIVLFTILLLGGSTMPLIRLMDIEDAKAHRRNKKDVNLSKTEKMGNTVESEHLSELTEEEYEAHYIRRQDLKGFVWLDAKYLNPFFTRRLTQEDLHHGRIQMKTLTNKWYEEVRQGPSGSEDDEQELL
UniProt Q86UD5: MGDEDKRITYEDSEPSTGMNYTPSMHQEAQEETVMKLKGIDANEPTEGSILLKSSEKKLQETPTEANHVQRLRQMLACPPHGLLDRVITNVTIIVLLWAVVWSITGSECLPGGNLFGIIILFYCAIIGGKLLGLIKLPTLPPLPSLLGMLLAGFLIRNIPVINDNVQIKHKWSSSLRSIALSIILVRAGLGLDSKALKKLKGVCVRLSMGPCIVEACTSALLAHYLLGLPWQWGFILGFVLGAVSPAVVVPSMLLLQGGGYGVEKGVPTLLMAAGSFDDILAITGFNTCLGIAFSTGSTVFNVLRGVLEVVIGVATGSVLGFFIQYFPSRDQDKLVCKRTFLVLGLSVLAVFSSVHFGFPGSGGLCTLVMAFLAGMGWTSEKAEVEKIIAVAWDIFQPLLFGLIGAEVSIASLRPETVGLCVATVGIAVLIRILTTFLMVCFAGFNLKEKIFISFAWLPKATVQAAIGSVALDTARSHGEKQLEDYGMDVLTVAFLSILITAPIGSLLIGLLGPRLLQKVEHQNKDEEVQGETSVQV
UniProt Q6ZP29: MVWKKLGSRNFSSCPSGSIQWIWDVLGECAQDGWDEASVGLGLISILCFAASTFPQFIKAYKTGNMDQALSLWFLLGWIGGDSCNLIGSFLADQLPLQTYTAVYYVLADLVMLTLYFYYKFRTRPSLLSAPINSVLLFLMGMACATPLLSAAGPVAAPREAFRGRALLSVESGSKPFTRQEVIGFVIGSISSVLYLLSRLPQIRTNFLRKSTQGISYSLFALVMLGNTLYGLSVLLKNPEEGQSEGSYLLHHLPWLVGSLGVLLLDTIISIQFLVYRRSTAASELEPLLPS
UniProt Q9BRV3: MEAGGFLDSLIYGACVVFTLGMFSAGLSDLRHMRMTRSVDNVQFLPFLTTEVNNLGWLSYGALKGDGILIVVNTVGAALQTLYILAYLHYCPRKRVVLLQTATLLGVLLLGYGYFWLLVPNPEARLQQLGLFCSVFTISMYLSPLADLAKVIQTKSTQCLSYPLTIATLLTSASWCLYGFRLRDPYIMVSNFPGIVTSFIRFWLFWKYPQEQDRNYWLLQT
UniProt Q9NTN3, whole entry, looked up: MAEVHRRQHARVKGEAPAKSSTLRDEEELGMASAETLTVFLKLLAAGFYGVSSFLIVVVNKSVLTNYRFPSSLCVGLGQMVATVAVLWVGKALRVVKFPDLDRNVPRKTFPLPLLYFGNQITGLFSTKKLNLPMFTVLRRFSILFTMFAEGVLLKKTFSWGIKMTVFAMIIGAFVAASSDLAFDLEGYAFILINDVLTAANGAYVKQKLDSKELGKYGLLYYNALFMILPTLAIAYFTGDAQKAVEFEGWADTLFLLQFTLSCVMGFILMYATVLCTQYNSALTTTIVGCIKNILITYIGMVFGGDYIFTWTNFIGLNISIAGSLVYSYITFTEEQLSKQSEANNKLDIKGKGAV
UniProt Q96T83: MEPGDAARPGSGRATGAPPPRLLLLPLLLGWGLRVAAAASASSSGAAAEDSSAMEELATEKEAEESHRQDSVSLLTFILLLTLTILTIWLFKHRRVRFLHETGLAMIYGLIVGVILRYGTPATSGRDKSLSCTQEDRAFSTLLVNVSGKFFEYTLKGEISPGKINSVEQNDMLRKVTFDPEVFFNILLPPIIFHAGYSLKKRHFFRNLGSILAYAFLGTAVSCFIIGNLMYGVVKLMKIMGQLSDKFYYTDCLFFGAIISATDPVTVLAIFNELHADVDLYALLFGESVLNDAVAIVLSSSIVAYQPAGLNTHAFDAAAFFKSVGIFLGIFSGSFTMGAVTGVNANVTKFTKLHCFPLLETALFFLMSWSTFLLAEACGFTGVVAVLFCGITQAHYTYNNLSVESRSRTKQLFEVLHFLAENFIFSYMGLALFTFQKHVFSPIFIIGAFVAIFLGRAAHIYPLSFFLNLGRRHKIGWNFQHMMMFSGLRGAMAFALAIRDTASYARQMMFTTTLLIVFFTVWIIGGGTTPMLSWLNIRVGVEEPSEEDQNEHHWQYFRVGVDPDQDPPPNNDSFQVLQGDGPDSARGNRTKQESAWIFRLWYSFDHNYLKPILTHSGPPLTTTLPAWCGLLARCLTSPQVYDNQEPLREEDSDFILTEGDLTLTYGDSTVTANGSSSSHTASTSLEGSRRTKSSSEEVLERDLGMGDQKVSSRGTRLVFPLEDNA
UniProt Q9BZD2: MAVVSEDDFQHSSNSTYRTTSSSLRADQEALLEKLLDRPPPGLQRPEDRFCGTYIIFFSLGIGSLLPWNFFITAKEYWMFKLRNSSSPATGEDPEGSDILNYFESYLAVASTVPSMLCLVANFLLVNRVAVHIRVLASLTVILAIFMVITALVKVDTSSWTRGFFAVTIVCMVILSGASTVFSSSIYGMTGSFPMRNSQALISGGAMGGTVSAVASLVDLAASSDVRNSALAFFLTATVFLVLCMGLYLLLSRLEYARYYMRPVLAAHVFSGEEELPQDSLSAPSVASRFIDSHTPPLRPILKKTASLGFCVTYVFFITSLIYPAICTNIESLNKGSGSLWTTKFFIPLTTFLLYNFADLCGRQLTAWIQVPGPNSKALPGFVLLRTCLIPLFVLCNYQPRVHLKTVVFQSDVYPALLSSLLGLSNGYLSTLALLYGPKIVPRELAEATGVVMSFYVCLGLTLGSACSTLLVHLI
UniProt Q9BZJ4: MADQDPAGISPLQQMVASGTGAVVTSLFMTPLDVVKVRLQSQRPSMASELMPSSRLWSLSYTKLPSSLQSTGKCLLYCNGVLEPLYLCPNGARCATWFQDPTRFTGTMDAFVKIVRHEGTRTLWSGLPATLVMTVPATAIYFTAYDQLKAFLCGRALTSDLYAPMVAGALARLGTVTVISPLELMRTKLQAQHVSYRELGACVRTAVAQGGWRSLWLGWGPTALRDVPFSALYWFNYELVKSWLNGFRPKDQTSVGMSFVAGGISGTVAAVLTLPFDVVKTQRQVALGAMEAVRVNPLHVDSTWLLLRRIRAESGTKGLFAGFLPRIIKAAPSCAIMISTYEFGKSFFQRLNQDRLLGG

Legend:
Experiment in all cases: log2 fold change, soluble protein after heating vs DMSO (PISA); higher = thermal stabilisation; K562 lysate, 10 uM; active = over 0.2 and 3.5 SD of the protein, either way, in both replicates (recomputed)
[1] = compound: CN1CC[C@H](c2c(O)cc(O)c3c(=O)cc(-c4ccccc4Cl)oc23)[C@H](O)C1 [alvocidib]
In short: (§1)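 Log-two fold change in thermal stability relative to solvent controls is reported from duplicates. For each sample, crude K562 extract from dounce-homogenised pellets in PBS pH 7.4 with 1 mM MgCl2, at 1 mg/mL protein, was treated with 10 μM compound for 30 min. Aliquots heated for 3 min across 48°C-58°C were pooled, brought to 0.5% NP-40 at 4°C and cleared at 21,000xg for 90 min. The supernatant was quantified by TMTpro 16plex LC-MS/MS with channel sums equalised.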

[2] = compound: CNC(=O)C1=CC=CC=C1NC2=NC(=NC=C2Cl)NC3=C(C=C(C=C3)N4CCOCC4)OC
In short: as §1

[3] = compound: CNC(=O)c1ccc(Nc2ncc(C(F)(F)F)c(NCc3nccnc3N(C)S(C)(=O)=O)n2)cc1 [defactinib]
In short: as §1

[4] = compound: CNc1nc(-c2ccc3c(N)n[nH]c3c2)cc(N2C[C@@H](C(=O)NC3CCCCC3)CC[C@H]2C)n1
In short: as §1

[5] = compound: COC(=O)N[C@@H](C)CNc1nccc(-c2cn(C(C)C)nc2-c2cc(Cl)cc(NS(C)(=O)=O)c2F)n1 [encorafenib]
In short: as §1

[6] = compound: COC(=O)[C@H](CCSC)NC(=O)C1=C(C=C(C=C1)NC[C@H](CS)N)C2=CC=CC=C2
In short: as §1

[7] = compound: COc1cc(Nc2ncc3c(n2)-c2ccc(Cl)cc2C(c2c(F)cccc2OC)=NC3)ccc1C(=O)O [alisertib]
In short: as §1

[8] = compound: COc1cc2ncnc(Nc3ccc(F)c(Cl)c3)c2cc1OCCCN1CCOCC1 [gefitinib]
In short: as §1

[9] = compound: CS(=O)(=O)N1CCN(Cc2cc3nc(-c4cccc5[nH]ncc45)nc(N4CCOCC4)c3s2)CC1 [pictilisib]
In short: as §1

[10] = compound: C[C@@H](Oc1cc(-c2cnn(C3CCNCC3)c2)cnc1N)c1c(Cl)ccc(F)c1Cl [crizotinib]
In short: as §1

[11] = compound: C[C@H](C1=CC=C(C=C1)C(=O)NC2=C3C=CNC3=NC=C2)N
In short: as §1

[12] = compound: C[C@H](Nc1ncnc2nc[nH]c12)c1cc2cccc(Cl)c2c(=O)n1-c1ccccc1 [duvelisib]
In short: as §1

[13] = compound: Cc1cc(Nc2cc(CN3CCOCC3)c3nc(C)c(Cc4ccc(Cl)cc4F)n3n2)n[nH]1 [gandotinib]
In short: as §1

[14] = compound: Cc1cc(Nc2cc(N3CCN(C)CC3)nc(Sc3ccc(NC(=O)C4CC4)cc3)n2)n[nH]1 [tozasertib]
In short: as §1

[15] = compound: Cc1ccc(-n2nc(C(C)(C)C)cc2NC(=O)Nc2ccc(OCCN3CCOCC3)c3ccccc23)cc1 [doramapimod]
In short: as §1

[16] = compound: Cc1ccc(NC(=O)c2ccc(CN3CC[C@H](N(C)C)C3)c(C(F)(F)F)c2)cc1Nc1nccc(-c2cncnc2)n1 [bafetinib]
In short: as §1

[17] = compound: Cc1cccc(CC(=O)N2CCc3c2ccc(-c2cn(C)c4ncnc(N)c24)c3F)n1
In short: as §1

[18] = compound: CN1CCc2c(c3ccccc3n2Cc2ccc(C(=O)NO)cc2)C1 [Tubastatin A]
In short: as §1

[19] = compound: COc1cc2nc(-c3cc(F)ccc3O)nc(N[C@@H]3CNC[C@H]3C(C)(C)O)c2cc1OC
In short: as §1

[20] = compound: CS(=O)(=O)CCNCc1ccc(-c2ccc3ncnc(Nc4ccc(OCc5cccc(F)c5)c(Cl)c4)c3c2)o1 [lapatinib]
In short: as §1

Measured: log2 fold change

SMAD5 (UniProt Q99717)
inactive: [1] -0.016 | [2] 0.086 | [3] 0 | [4] 0.105 | [5] 0.035 | [6] -0.093 | [7] -0.079 | [8] -0.007 | [9] -0.036 | [10] -0.017 | [11] 0.056 | [12] 0.046 | [13] -0.006 | [14] 0.128 | [15] 0.126 | [16] -0.413 | [17] -0.016

SLC38A6 isoform 2 (UniProt Q8IZM9)
inactive: [2] -0.083 | [3] 0.05

SLC25A28 (UniProt Q96A46)
inactive: [3] 0.003 | [5] 0.065 | [6] -0.091 | [10] 0.164 | [14] -0.014 | [15] -0.016

SLC35E2B (UniProt P0CK96)
inactive: [3] 0.073 | [5] 0.187 | [6] -0.131 | [14] -0.006

SLC44A1 (UniProt Q8WWI5)
inactive: [1] -0.11 | [18] 0.056 | [4] 0.148 | [11] -0.22 | [12] 0.081 | [13] 0.045 | [17] 0.118

SLC41A3 isoform 9 (UniProt Q96GZ6)
inactive: [1] -0.138 | [18] 0.178 | [3] -0.078 | [5] 0.038 | [6] 0.051 | [7] 0.024 | [8] -0.123 | [9] -0.006 | [11] -0.363 | [13] 0.103 | [14] 0.063 | [16] -0.078 | [17] 0.182

Quoted from the entries so far (two entries):
SLC25A28 (UniProt Q96A46)
inactive: [3] 0.003 | [5] 0.065 | [6] -0.091 | [10] 0.164 | [14] -0.014 | [15] -0.016

SLC35E2B (UniProt P0CK96)
inactive: [3] 0.073 | [5] 0.187 | [6] -0.131 | [14] -0.006

(next part)

SLC38A7 (UniProt Q9NVC3)
inactive: [1] -0.069 | [2] -0.149 | [3] 0.022 | [4] 0.029 | [5] 0.03 | [6] -0.005 | [7] -0.013 | [19] -0.032 | [8] -0.06 | [20] 0.105 | [9] -0.017 | [10] 0.127 | [11] -0.004 | [12] -0.087 | [13] -0.01 | [14] -0.03 | [15] -0.305 | [16] -0.058 | [17] -0.05

SLCO2B1 (UniProt O94956)
inactive: [1] -0.03 | [5] 0.096 | [6] 0.16 | [11] 0.067 | [13] 0.089 | [14] 0.153 | [17] 0.05

SLC9A8 isoform 2 (UniProt Q9Y2E8)
inactive: [1] 0.023 | [18] 0.022 | [2] 0.033 | [4] 0.019 | [7] -0.085 | [19] -0.002 | [8] 0.09 | [20] 0.025 | [9] 0.01 | [10] 0.064 | [11] 0.027 | [12] 0.038 | [13] 0.035 | [15] -0.046 | [16] 0.014 | [17] -0.115

SLC39A13 (UniProt Q96H72)
inactive: [18] -0.125 | [2] -0.058

SLC9B2 (UniProt Q86UD5)
inactive: [18] 0.071 | [19] -0.002 | [20] 0.042 | [10] -0.038 | [15] 0.173

SLC66A1 (UniProt Q6ZP29)
inactive: [1] -0.021 | [18] -0.088 | [2] -0.01 | [7] -0.088 | [19] -0.01 | [8] -0.169 | [20] -0.046 | [9] -0.015 | [10] -0.051 | [11] -0.087 | [13] 0.067 | [15] -0.175 | [16] 0.073 | [17] 0.015

SLC3A2 (UniProt F5H867)
inactive: [1] -0.088 | [7] 0.033 | [19] 0.007 | [8] 0.1 | [20] -0.083 | [9] -0.056 | [11] -0.2 | [13] 0.25 | [16] -0.193 | [17] 0.292

SLC66A3 (UniProt Q8N755)
inactive: [3] -0.022 | [4] 0.017 | [19] -0.098 | [20] 0.014 | [10] -0.11 | [12] -0.047 | [15] -0.038

SLC50A1 (UniProt Q9BRV3)
inactive: [1] -0.042 | [18] 0.178 | [2] 0.016 | [4] -0.235 | [19] 0.039 | [20] -0.161 | [10] -0.469 | [11] -0.256 | [12] 0.126 | [13] 0.108 | [15] 0.138 | [17] 0.328

SLC35D1 (UniProt Q9NTN3)
inactive: [3] 0.035 | [10] -0.073 | [15] -0.022

SLC9A7 (UniProt Q96T83)
inactive: [19] 0.124 | [20] -0.056 | [9] -0.254 | [10] -0.234 | [15] 0.141 | [16] -0.669

SLC29A3 (UniProt Q9BZD2)
inactive: [1] 0.033 | [18] -0.111 | [2] 0.114 | [7] 0.029 | [19] -0.142 | [8] -0.027 | [20] 0 | [10] 0.001 | [11] -0.006 | [13] 0.032 | [15] 0.052 | [17] 0.101

SLC25A39 (UniProt Q9BZJ4)
inactive: [1] 0.011 | [2] -0.128 | [4] 0.099 | [7] 0.179 | [8] -0.149 | [11] -0.22 | [12] 0.081 | [13] -0.011 | [17] 0.253
